This is one part of the list.
How the values were obtained:
Assay in all cases: log2 fold change, soluble protein after heating vs DMSO (PISA); higher = thermal stabilisation; K562 lysate, 10 uM; active = over 0.2 and 3.5 SD of the protein, either way, in both replicates (recomputed)
alvocidib = compound: CN1CC[C@H](c2c(O)cc(O)c3c(=O)cc(-c4ccccc4Cl)oc23)[C@H](O)C1 [alvocidib]
Summary of the method: (§1)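 Values give the log-two fold change in thermal stability against solvent controls, from duplicates. Crude K562 extract at 1 mg/mL protein, made by dounce homogenisation in PBS pH 7.4 with 1 mM MgCl2, was treated with 10 μM compound for 30 min. After 3 min heating across 48°C-58°C, aliquots were pooled, adjusted to 0.5% NP-40 at 4°C and centrifuged at 21,000xg for 90 min. The supernatant was measured by TMTpro 16plex LC-MS/MS with channel sums equalised.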

Protein sequences, listed by entry. Tags and fused reporters are not part of them. Lines headed by an entry give the natural chain unless they say otherwise; changes in a name come on top.
UniProt P08047, whole entry, looked up: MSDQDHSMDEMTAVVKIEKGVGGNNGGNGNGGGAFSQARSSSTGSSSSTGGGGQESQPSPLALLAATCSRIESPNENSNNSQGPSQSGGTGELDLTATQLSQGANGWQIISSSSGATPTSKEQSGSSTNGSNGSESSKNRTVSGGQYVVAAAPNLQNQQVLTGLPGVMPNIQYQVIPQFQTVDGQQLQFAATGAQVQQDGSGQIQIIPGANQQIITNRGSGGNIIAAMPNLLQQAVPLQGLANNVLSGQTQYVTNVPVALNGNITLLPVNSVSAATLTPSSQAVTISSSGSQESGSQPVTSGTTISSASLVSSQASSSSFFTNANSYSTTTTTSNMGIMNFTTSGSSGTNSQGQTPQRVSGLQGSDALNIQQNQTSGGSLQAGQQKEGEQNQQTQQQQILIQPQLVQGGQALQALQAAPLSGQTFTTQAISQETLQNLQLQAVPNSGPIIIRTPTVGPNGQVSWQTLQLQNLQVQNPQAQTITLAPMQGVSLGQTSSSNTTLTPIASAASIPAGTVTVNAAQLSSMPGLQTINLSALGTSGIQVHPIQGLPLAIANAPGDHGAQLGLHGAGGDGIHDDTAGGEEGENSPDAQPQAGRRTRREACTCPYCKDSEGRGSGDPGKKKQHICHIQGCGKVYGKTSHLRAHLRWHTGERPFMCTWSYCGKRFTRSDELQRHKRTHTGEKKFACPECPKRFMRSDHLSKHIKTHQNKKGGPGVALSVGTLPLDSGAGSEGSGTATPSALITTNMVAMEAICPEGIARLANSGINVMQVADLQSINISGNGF
UniProt P23497: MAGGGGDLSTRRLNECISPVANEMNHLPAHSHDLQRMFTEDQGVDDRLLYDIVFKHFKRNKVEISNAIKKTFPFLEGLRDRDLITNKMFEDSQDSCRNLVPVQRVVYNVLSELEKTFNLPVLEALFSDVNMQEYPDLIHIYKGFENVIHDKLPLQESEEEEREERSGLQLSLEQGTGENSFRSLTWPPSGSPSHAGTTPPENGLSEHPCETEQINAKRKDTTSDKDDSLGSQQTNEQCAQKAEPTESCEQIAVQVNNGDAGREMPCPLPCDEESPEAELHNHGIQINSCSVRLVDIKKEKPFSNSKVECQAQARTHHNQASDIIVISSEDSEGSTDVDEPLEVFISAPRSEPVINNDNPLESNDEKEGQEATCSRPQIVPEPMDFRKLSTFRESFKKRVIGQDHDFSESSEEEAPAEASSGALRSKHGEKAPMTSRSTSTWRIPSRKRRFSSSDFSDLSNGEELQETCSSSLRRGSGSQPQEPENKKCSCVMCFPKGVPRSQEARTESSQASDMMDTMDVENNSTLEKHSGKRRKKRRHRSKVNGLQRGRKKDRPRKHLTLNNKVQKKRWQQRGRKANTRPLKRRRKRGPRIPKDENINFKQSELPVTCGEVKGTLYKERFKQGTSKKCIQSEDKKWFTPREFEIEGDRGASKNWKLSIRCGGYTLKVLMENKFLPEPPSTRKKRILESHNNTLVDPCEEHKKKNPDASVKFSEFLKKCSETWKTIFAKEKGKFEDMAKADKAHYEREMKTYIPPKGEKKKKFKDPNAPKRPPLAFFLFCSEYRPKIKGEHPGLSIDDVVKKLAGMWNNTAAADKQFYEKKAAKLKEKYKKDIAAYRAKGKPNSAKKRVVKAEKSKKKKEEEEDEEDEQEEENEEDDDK
UniProt Q13424: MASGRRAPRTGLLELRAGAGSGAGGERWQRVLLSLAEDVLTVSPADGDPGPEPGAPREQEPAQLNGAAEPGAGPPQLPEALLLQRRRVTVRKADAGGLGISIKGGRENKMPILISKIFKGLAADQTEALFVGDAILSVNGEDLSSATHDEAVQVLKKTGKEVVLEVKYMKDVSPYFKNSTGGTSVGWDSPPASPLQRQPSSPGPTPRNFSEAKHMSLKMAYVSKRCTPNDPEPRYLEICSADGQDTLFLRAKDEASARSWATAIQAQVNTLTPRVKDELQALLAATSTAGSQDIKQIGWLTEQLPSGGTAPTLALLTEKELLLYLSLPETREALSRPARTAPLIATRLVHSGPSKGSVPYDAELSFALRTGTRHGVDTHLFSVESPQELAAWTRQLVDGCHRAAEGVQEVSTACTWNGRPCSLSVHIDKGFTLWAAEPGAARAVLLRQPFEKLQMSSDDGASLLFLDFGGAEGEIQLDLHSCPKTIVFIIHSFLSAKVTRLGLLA
UniProt O75391: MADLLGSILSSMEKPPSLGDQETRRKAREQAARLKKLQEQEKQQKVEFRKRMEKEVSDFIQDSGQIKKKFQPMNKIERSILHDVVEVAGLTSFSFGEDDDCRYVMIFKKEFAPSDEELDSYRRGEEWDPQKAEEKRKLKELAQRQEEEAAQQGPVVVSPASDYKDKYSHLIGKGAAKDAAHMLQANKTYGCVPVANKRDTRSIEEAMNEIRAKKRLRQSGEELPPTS
UniProt A6NHR9: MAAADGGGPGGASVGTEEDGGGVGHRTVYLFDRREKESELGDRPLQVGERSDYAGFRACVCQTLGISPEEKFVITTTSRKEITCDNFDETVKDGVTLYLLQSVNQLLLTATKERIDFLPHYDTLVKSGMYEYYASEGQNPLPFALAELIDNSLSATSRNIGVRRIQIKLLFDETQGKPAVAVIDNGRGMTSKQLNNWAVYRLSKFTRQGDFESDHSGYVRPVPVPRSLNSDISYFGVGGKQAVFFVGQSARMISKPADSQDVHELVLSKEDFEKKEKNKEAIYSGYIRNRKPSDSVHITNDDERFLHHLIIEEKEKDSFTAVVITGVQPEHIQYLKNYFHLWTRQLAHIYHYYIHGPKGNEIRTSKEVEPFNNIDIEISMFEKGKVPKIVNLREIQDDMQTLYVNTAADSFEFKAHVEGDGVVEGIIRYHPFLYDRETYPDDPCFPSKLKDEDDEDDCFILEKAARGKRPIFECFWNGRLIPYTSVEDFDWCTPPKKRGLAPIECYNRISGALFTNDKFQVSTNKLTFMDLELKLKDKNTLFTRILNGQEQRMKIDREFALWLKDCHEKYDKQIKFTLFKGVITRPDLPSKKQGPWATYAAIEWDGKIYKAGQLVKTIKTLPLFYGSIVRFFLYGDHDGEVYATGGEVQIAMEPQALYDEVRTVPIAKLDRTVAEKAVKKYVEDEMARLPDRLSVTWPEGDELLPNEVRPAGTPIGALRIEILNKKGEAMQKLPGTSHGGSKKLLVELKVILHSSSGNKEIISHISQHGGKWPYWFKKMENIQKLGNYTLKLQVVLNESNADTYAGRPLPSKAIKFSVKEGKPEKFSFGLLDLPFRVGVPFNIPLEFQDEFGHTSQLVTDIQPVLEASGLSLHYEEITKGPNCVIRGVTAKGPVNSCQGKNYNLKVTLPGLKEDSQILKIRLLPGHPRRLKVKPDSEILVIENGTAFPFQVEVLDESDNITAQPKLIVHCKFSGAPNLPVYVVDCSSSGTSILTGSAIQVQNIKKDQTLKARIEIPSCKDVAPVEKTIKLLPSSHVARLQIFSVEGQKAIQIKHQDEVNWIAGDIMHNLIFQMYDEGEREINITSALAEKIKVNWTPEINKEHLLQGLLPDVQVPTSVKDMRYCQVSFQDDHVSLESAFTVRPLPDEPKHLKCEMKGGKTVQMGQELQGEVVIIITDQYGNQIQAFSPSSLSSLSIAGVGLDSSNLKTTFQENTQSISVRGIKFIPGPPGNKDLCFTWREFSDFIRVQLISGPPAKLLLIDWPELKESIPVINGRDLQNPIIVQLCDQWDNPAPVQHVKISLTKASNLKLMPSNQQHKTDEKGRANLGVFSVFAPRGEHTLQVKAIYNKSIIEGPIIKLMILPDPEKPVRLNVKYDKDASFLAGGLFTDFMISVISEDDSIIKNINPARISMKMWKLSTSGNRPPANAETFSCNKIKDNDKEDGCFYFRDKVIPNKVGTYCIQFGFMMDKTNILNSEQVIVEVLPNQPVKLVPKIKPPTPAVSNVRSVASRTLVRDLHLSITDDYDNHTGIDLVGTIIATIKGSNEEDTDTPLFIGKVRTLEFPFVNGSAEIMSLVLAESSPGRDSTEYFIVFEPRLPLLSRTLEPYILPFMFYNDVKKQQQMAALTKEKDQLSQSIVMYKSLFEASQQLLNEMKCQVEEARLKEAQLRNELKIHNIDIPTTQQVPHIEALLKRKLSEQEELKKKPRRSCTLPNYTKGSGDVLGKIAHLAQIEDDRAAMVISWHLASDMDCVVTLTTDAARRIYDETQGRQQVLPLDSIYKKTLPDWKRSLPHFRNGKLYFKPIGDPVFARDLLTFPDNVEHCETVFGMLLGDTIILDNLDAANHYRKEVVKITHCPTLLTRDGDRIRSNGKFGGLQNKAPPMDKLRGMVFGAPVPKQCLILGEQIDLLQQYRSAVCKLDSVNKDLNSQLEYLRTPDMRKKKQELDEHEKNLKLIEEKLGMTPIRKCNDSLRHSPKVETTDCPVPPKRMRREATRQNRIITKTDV
UniProt P55769: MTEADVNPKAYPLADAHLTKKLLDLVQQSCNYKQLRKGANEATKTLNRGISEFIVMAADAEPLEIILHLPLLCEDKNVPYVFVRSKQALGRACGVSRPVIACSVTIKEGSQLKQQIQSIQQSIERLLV
UniProt P62318, whole entry, looked up: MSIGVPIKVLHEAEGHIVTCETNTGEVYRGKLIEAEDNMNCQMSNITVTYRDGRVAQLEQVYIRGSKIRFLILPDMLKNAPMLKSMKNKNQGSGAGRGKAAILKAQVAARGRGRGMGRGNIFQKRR
UniProt Q13573: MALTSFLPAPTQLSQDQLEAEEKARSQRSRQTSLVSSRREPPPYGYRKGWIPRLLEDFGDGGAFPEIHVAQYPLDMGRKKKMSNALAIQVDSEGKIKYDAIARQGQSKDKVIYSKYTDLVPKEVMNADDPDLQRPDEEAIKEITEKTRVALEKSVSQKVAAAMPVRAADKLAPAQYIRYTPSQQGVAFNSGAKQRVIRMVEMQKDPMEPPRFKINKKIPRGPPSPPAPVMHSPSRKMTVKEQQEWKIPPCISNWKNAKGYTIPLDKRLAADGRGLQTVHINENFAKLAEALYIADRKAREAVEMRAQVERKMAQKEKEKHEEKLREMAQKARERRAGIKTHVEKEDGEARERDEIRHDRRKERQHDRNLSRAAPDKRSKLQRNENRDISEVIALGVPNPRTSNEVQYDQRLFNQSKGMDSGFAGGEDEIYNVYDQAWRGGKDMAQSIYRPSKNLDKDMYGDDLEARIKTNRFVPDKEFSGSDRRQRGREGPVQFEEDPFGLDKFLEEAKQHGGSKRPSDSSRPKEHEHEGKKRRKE
UniProt O60271: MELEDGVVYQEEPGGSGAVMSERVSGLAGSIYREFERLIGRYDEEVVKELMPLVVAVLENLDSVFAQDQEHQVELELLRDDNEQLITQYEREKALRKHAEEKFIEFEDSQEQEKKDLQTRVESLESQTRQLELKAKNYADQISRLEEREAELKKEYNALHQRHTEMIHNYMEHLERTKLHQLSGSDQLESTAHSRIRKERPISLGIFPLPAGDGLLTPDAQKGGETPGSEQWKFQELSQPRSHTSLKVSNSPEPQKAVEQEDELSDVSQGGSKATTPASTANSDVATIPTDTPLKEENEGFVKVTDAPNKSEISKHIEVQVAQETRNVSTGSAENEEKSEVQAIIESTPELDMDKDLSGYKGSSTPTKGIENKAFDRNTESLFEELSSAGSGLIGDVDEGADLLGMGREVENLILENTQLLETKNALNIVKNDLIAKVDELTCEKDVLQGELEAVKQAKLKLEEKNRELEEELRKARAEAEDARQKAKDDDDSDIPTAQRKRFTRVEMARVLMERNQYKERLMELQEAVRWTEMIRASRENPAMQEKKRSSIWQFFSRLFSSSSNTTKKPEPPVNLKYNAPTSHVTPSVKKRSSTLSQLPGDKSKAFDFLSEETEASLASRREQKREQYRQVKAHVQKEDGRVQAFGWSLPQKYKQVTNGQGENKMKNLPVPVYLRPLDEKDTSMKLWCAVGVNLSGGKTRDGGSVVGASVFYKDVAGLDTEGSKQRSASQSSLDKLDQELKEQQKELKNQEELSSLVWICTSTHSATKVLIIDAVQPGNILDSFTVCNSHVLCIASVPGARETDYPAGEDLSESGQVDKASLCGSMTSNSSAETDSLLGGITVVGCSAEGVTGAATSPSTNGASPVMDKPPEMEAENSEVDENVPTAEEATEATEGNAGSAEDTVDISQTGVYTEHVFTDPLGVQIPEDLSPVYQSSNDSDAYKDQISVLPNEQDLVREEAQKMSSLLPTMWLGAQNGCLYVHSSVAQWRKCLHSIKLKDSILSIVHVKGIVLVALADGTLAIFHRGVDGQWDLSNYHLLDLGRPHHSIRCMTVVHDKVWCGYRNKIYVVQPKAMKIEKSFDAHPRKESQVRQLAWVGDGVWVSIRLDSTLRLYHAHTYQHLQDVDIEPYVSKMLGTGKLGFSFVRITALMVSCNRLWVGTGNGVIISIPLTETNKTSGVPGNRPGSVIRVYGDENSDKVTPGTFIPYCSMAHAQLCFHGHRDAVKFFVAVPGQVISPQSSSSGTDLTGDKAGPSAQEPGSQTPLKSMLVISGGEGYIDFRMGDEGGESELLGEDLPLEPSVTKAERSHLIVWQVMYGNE

Tubastatin A = compound: CN1CCc2c(c3ccccc3n2Cc2ccc(C(=O)NO)cc2)C1 [Tubastatin A]
Summary of the method: as §1

[1] = compound: CNC(=O)C1=CC=CC=C1NC2=NC(=NC=C2Cl)NC3=C(C=C(C=C3)N4CCOCC4)OC
Summary of the method: as §1

defactinib = compound: CNC(=O)c1ccc(Nc2ncc(C(F)(F)F)c(NCc3nccnc3N(C)S(C)(=O)=O)n2)cc1 [defactinib]
Summary of the method: as §1

[2] = compound: CNc1nc(-c2ccc3c(N)n[nH]c3c2)cc(N2C[C@@H](C(=O)NC3CCCCC3)CC[C@H]2C)n1
Summary of the method: as §1

encorafenib = compound: COC(=O)N[C@@H](C)CNc1nccc(-c2cn(C(C)C)nc2-c2cc(Cl)cc(NS(C)(=O)=O)c2F)n1 [encorafenib]
Summary of the method: as §1

[3] = compound: COC(=O)[C@H](CCSC)NC(=O)C1=C(C=C(C=C1)NC[C@H](CS)N)C2=CC=CC=C2
Summary of the method: as §1

alisertib = compound: COc1cc(Nc2ncc3c(n2)-c2ccc(Cl)cc2C(c2c(F)cccc2OC)=NC3)ccc1C(=O)O [alisertib]
Summary of the method: as §1

[4] = compound: COc1cc2nc(-c3cc(F)ccc3O)nc(N[C@@H]3CNC[C@H]3C(C)(C)O)c2cc1OC
Summary of the method: as §1

gefitinib = compound: COc1cc2ncnc(Nc3ccc(F)c(Cl)c3)c2cc1OCCCN1CCOCC1 [gefitinib]
Summary of the method: as §1

Measured: log2 fold change

SMG8 isoform 2 (UniProt Q8ND04)
inactive: alvocidib 0.07 | Tubastatin A -0.039 | [1] -0.032 | defactinib 0.056 | [2] -0.088 | encorafenib 0.006 | [3] 0.009 | alisertib -0.013 | [4] -0.01 | gefitinib 0.017

SP1 (UniProt P08047)
inactive: alvocidib -0.017 | Tubastatin A -0.013 | [1] 0.053 | defactinib 0.03 | [2] 0.104 | encorafenib 0.073 | [3] -0.087 | alisertib 0.005 | [4] -0.06 | gefitinib 0.003

SMARCE1 (UniProt Q969G3)
inactive: alvocidib 0.012 | Tubastatin A 0.006 | [1] 0.002 | defactinib -0.001 | [2] -0.044 | encorafenib -0.005 | [3] 0.081 | alisertib -0.049 | [4] 0.002 | gefitinib -0.03

2 records drawn at random from those above:
SMG8 isoform 2 (UniProt Q8ND04)
inactive: alvocidib 0.07 | Tubastatin A -0.039 | [1] -0.032 | defactinib 0.056 | [2] -0.088 | encorafenib 0.006 | [3] 0.009 | alisertib -0.013 | [4] -0.01 | gefitinib 0.017

SP1 (UniProt P08047)
inactive: alvocidib -0.017 | Tubastatin A -0.013 | [1] 0.053 | defactinib 0.03 | [2] 0.104 | encorafenib 0.073 | [3] -0.087 | alisertib 0.005 | [4] -0.06 | gefitinib 0.003

Remaining list, next part:

SMG9 (UniProt Q9H0W8)
inactive: alvocidib -0.025 | Tubastatin A -0.043 | [1] 0.042 | defactinib 0.034 | [2] -0.091 | encorafenib 0.032 | [3] -0.049 | alisertib 0.024 | [4] 0.03 | gefitinib -0.021

SP100 isoform 4 (UniProt P23497)
inactive: alvocidib -0.007 | Tubastatin A -0.019 | [1] -0.021 | defactinib 0.038 | [2] -0.01 | encorafenib 0.021 | [3] -0.067 | alisertib 0.01 | [4] -0.005 | gefitinib -0.051

SNTA1 (UniProt Q13424)
inactive: alvocidib 0.027 | Tubastatin A 0.026 | [1] -0.102 | defactinib -0.003 | [2] 0.059 | encorafenib 0.016 | [3] 0.076 | alisertib -0.027 | [4] -0.128 | gefitinib 0.011

SMARCAL1 (UniProt Q9NZC9)
inactive: alvocidib 0.125 | Tubastatin A -0.108 | [1] 0.052 | defactinib -0.001 | [2] -0.049 | encorafenib 0.01 | [3] 0.057 | alisertib -0.002 | [4] 0.053 | gefitinib -0.012

SNX12 isoform 1 (UniProt Q9UMY4)
inactive: alvocidib 0.001 | Tubastatin A 0.024 | [1] -0.001 | defactinib -0.032 | [2] 0.02 | encorafenib 0 | [3] -0.077 | alisertib -0.016 | [4] -0.002 | gefitinib 0.026

SORD (UniProt Q00796)
inactive: alvocidib -0.02 | Tubastatin A 0.037 | [1] 0.002 | defactinib -0.008 | [2] 0.014 | encorafenib 0.005 | [3] -0.05 | alisertib -0.013 | [4] 0.005 | gefitinib -0.016

SMG1 (UniProt Q96Q15)
inactive: alvocidib 0.022 | Tubastatin A -0.05 | [1] 0.01 | defactinib 0.033 | [2] -0.046 | encorafenib 0.016 | [3] 0 | alisertib -0.02 | [4] -0.013 | gefitinib 0.012

SMARCC1 (UniProt Q92922)
inactive: alvocidib -0.013 | Tubastatin A -0.063 | [1] -0.004 | defactinib -0.004 | [2] 0.001 | encorafenib 0.005 | [3] 0.053 | alisertib -0.014 | [4] -0.002 | gefitinib -0.06

SMTN isoform 6 (UniProt P53814)
inactive: alvocidib -0.04 | Tubastatin A -0.019 | [1] 0.071 | defactinib -0.103 | [2] -0.013 | encorafenib -0.002 | [3] -0.085 | alisertib 0.055 | [4] -0.005 | gefitinib 0.005

SNRPA (UniProt P09012)
inactive: alvocidib -0.019 | Tubastatin A 0.042 | [1] 0.001 | defactinib -0.045 | [2] 0.029 | encorafenib -0.018 | [3] 0.015 | alisertib 0.022 | [4] 0.003 | gefitinib 0.006

SMG6 (UniProt Q86US8)
inactive: alvocidib -0.067 | Tubastatin A -0.062 | [1] -0.112 | defactinib -0.027 | [2] -0.059 | encorafenib 0.148 | [3] -0.01 | alisertib -0.044 | [4] 0.008 | gefitinib -0.069

SOD2 (UniProt P04179)
inactive: alvocidib -0.067 | Tubastatin A -0.005 | [1] -0.008 | defactinib 0.003 | [2] 0.036 | encorafenib -0.019 | [3] -0.026 | alisertib 0.015 | [4] 0.025 | gefitinib 0.013

SPAG7 (UniProt O75391)
inactive: alvocidib -0.016 | Tubastatin A 0.038 | [1] -0.041 | defactinib -0.003 | [2] 0.009 | encorafenib 0.018 | [3] -0.024 | alisertib -0.005 | [4] 0.023 | gefitinib -0.013

SMCHD1 (UniProt A6NHR9)
inactive: alvocidib -0.044 | Tubastatin A -0.121 | [1] 0.015 | defactinib -0.01 | [2] -0.01 | encorafenib 0.01 | [3] 0.089 | alisertib 0.002 | [4] 0.006 | gefitinib -0.001

SNAP29 (UniProt O95721)
inactive: alvocidib -0.029 | Tubastatin A 0.049 | [1] 0.008 | defactinib 0.004 | [2] 0.035 | encorafenib -0.006 | [3] -0.004 | alisertib 0.017 | [4] -0.018 | gefitinib 0.058

SND1 (UniProt Q7KZF4)
inactive: alvocidib 0.009 | Tubastatin A -0.121 | [1] 0.015 | defactinib 0.019 | [2] -0.019 | encorafenib -0.019 | [3] 0.195 | alisertib 0.026 | [4] -0.004 | gefitinib -0.017

SNX5 (UniProt Q9Y5X3)
inactive: alvocidib 0.023 | Tubastatin A -0.015 | [1] -0.016 | defactinib 0 | [2] -0.041 | encorafenib -0.01 | [3] 0.022 | alisertib 0.009 | [4] -0.027 | gefitinib 0.007

SNU13 (UniProt P55769)
inactive: alvocidib 0.024 | Tubastatin A -0.017 | [1] 0.002 | defactinib 0.039 | [2] -0.006 | encorafenib 0.01 | [3] 0.016 | alisertib -0.029 | [4] -0.013 | gefitinib -0.056

SNRPD3 (UniProt P62318)
inactive: alvocidib -0.121 | Tubastatin A 0.014 | [1] -0.003 | defactinib -0.046 | [2] -0.068 | encorafenib -0.014 | [3] 0.027 | alisertib 0.017 | [4] 0.022 | gefitinib 0.052

SNAP23 (UniProt O00161)
inactive: alvocidib 0.035 | Tubastatin A 0.015 | [1] -0.027 | defactinib -0.002 | [2] -0.01 | encorafenib 0 | [3] -0.033 | alisertib -0.015 | [4] 0.005 | gefitinib 0.02

SNX16 (UniProt P57768)
inactive: alvocidib -0.083 | Tubastatin A -0.018 | [1] -0.05 | defactinib 0.08 | [2] 0.041 | encorafenib 0.01 | [3] 0.037 | alisertib 0.029 | [4] -0.026 | gefitinib 0.007

SNW1 (UniProt Q13573)
inactive: alvocidib 0.023 | Tubastatin A 0.051 | [1] 0.02 | defactinib 0.006 | [2] 0.073 | encorafenib 0.02 | [3] -0.119 | alisertib 0.014 | [4] -0.003 | gefitinib -0.03

SMG7 (UniProt Q92540)
inactive: alvocidib -0.003 | Tubastatin A 0.008 | [1] 0.018 | defactinib 0.076 | [2] -0.017 | encorafenib 0.025 | [3] 0.202 | alisertib 0.015 | [4] 0.132 | gefitinib 0.032

SMYD2 (UniProt Q9NRG4)
inactive: alvocidib 0.159 | Tubastatin A -0.118 | [1] 0.03 | defactinib -0.011 | [2] 0.006 | encorafenib -0.001 | [3] -0.002 | alisertib 0.074 | [4] 0.018 | gefitinib -0.011

SPAG9 (UniProt O60271)
inactive: alvocidib -0.014 | Tubastatin A 0.047 | [1] 0.005 | defactinib -0.03 | [2] -0.002 | encorafenib 0.002 | [3] 0.01 | alisertib -0.005 | [4] 0.005 | gefitinib 0.027

SMN1 (UniProt Q16637)
inactive: alvocidib -0.05 | Tubastatin A -0.173 | [1] 0.017 | defactinib -0.023 | [2] -0.01 | encorafenib 0.03 | [3] 0.149 | alisertib 0.062 | [4] -0.024 | gefitinib -0.064
